Assay results: the supplement of paper PMC3334620
In all, about 33,000 sequences were measured (“E-score (-0.5 to 0.5)”: median about -0.0034, highest 2% from about 0.25 on). The list shows a part of the results.

molecular target: T1, Yap3 (UniProt P38749); assay: PBM E-score (8-mer binding enrichment) (E-score (-0.5 to 0.5)); higher = stronger / more preferred TF binding; conditions: protein concentration: 100 nM; construct: GST-full length
T1 sequence: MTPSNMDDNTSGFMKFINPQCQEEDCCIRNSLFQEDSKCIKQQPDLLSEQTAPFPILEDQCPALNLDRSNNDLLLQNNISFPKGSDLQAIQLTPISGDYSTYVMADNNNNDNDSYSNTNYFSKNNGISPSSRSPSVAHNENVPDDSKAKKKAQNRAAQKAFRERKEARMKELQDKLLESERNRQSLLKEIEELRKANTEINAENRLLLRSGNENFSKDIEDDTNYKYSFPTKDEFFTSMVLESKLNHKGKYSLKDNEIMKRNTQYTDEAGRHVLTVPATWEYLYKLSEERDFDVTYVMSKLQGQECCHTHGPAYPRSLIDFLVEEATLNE
Outline: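 Full-length yeast transcription factors or their DNA-binding domains, GST-tagged and expressed with PURExpress, were applied at about 100-200 nM to universal all-10-mer Agilent arrays. These arrays had been made double-stranded by primer extension on fresh or once-stripped slides. Detection used fluorescent anti-GST, normalisation used masliner, and E-scores for ungapped eight-base words pooled with reverse complements came from the Universal PBM Analysis Suite.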

| Sequence | PBM E-score |
| --- | --- |
| CACCCCTA | -0.0124 |
| CTGCCTGC | -0.21 |
| AGTAGACC | -0.0544 |
| GTAGCCCA | -0.175 |
| AGCCTGGC | -0.138 |
| CGGAACGC | -0.00515 |
| GCAGGGGA | -0.293 |
| AATCTCTA | 0.249 |
| CGTTGCAA | 0.0264 |
| ATACCCTA | 0.0498 |
| CAAGCTCG | -0.0584 |
| ATAAACGC | 0.0151 |
| CCGTTGGC | -0.0505 |
| CTGTATCC | 0.172 |
| GCTAAGAC | -0.0702 |
| CAATATGA | 0.174 |
| CACCGCCG | -0.164 |
| AAGTTATC | 0.0646 |
| CTCGAGAG | -0.00076 |
| GGATAACC | -0.154 |
| CCTACTCA | -0.0277 |
| CGTTTCCC | -0.0188 |
| AATGTACC | -0.0973 |
| TGAACTAA | 0.0069 |
| GAGGCCCA | -0.264 |

| Sequence | PBM E-score |
| --- | --- |
| AGCCCCTA | -0.224 |
| AAAGACAG | 0.25 |
| CCCAGTAG | 0.0549 |
| GGCATAAA | 0.14 |
| GTAGGAGA | -0.137 |
| AGAGGGCG | -0.103 |
| GACCTGAC | -0.0718 |
| ACAGTGAA | 0.0171 |
| AAGCGGAG | -0.144 |
| CCCATCTC | -0.00094 |
| CGCGACAG | -0.127 |
| CGCACAGA | -0.0531 |
| CTCCGTAA | -0.0605 |
| TACCGCAA | 0.169 |
| CCTCTGAG | -0.208 |
| CCCCCAAA | -0.268 |
| AGAAACGA | 0.189 |
| ATGCCCCG | -0.108 |
| ACATCCCC | -0.133 |
| ACACGTTG | -0.237 |
| GAGATCGC | -0.0166 |
| CATCCTGA | 0.0387 |
| CCATGGTA | 0.0047 |
| ACGGTGAG | 0.0341 |
| GGATTTTA | 0.139 |

3 entries from above, as labelled records.
CTCGAGAG
  PBM E-score: -0.00076
GGATAACC
  PBM E-score: -0.154
CCTACTCA
  PBM E-score: -0.0277

Continued:

| Sequence | PBM E-score |
| --- | --- |
| CTACGTAG | -0.039 |
| AAGCGTCT | -0.163 |
| CATGCTTA | 0.0813 |
| TCTAATCA | 0.185 |
| CACCGTAC | 0.097 |
| AAATCCTG | 0.117 |
| GTAATCGA | 0.167 |
| TGGAAACA | 0.0668 |
| GAGATTCA | 0.026 |
| AGTGGCTA | -0.127 |
| ACGAACAC | 0.154 |
| CCTAAAGA | -0.123 |
| ATGTAAGC | 0.264 |
| AGGCCTTA | -0.104 |
| CAATGACG | -0.0644 |
| TATTATCA | 0.179 |
| CTTTTTAA | 0.04 |
| CGGCGTCA | -0.0918 |
| CTCTGCAG | -0.00393 |
| AAGATCTT | 0.214 |
| CTCGTTTA | 0.0591 |
| CGTTTCCA | 0.105 |
| CCCTTGAC | -0.0534 |
| CAACTATG | 0.141 |
| CGATTTCA | 0.00447 |

| Sequence | PBM E-score |
| --- | --- |
| CAGGACTA | -0.0749 |
| ACTATCAA | 0.165 |
| CCAGCCGA | -0.199 |
| CGGAACTC | -0.103 |
| AATAGACC | -0.134 |
| GATGTCAC | 0.0205 |
| ACCGTAAT | 0.145 |
| ATGAGAAC | 0.0902 |
| ATCATGAC | 0.222 |
| ACAAGCGG | 0.122 |
| AAGCTTTA | 0.0767 |
| CAGCGTAC | -0.111 |
| CTCCTTTC | -0.108 |
| AATGTCGC | 0.098 |
| CTCCGGCA | -0.133 |
| GGGTCGAC | -0.109 |
| CCAAGGCA | -0.096 |
| ACCGTGTC | -0.0831 |
| GACCCAAC | 0.0145 |
| ACACTTCC | 0.0193 |
| AGGGTATA | 0.168 |
| ATGGGTTC | -0.0764 |
| TCAAATAA | 0.133 |
| ATTTCTCA | 0.0516 |
| CGGGGTAC | -0.251 |

Retrieved one by one from the entries so far (6):

| Sequence | PBM E-score |
| --- | --- |
| AAGCTTTA | 0.0767 |
| ATCATGAC | 0.222 |
| ATGGGTTC | -0.0764 |
| ACTATCAA | 0.165 |
| ACAAGCGG | 0.122 |
| TCAAATAA | 0.133 |

Additional records follow.

| Sequence | PBM E-score |
| --- | --- |
| CAGGTCGC | -0.0059 |
| ACTGTAGA | 0.0938 |
| GCCTATCA | 0.108 |
| CGTATAAA | 0.156 |
| ATGTGATC | 0.188 |
| CCATCACC | 0.0411 |
| ATCACTTG | 0.062 |
| GCGGGGGA | -0.257 |
| GGTCGCAA | -0.0125 |
| ATATAGGA | 0.151 |
| CCGTGTAA | -0.0506 |
| AAGGCACC | -0.0985 |
| CTACTCAA | 0.192 |
| GACTCAGC | 0.00341 |
| ACTCAGTA | 0.244 |
| CAACGCCG | -0.047 |
| CCACAAGC | -0.159 |
| AACAGAAG | 0.00147 |
| CAGCTTTC | -0.0897 |
| GCGGGGCA | -0.108 |
| ACAGTTCT | 0.0834 |
| CGAGCAAG | -0.0922 |
| TCTGCGAA | -0.259 |
| GCGGTGAC | 0.0393 |
| TAAGGCCA | -0.00239 |

| Sequence | PBM E-score |
| --- | --- |
| CTACGCGC | -0.0286 |
| GCGATTGA | -0.00574 |
| ACGTGTCA | 0.0266 |
| GTTTTATA | 0.139 |
| ACGATTCT | 0.147 |
| ACTCAATG | 0.0458 |
| ACCTCGGG | -0.053 |
| GAGGGTAA | 0.00766 |
| AACTCCCT | -0.0742 |
| CATTTATC | 0.198 |
| GACAGATC | 0.0539 |
| ACAAAACC | 0.272 |
| CGCCGTAC | -0.104 |
| CTGCTCTC | -0.0852 |
| GCATCTAC | 0.00556 |
| GACGACCC | -0.199 |
| ACTCCGAG | 0.0726 |
| AGTTGGTA | 0.166 |
| ACTTGGCG | -0.0957 |
| GCGACCCC | -0.349 |
| CGAAAGCG | -0.155 |
| AACTCAAG | 0.0218 |
| ACCAGAGC | -0.0251 |
| AATGGAAC | 0.12 |
| AAGAATAG | 0.0892 |

| Sequence | PBM E-score |
| --- | --- |
| CCTTGTCG | -0.133 |
| ATCTCATG | 0.134 |
| GGGACATA | 0.0437 |
| AGGGCTCC | -0.28 |
| AACAGACG | -0.0301 |
| AAACTTCG | 0.00269 |
| GCAAAGAC | 0.0185 |
| AAGAATAA | 0.151 |
| ACAATAGT | 0.144 |
| GCATTCAC | 0.16 |
| ACATCGGC | -0.0478 |
| GTCGTATA | 0.0408 |
| CTACATGC | 0.0316 |
| AAGGAGCT | -0.2 |
| AATGCCAC | -0.0923 |
| ACTTGGAA | -0.143 |
| ACGGCAAG | 0.1 |
| ATCTGGCA | -0.0274 |
| CCAGACGA | -0.115 |
| ACTGATGA | 0.159 |
| GAAACCGA | 0.0654 |
| GTGGGTGA | 0.131 |
